The experiment deals with B6C3F1 mice, colon carcinoma 38 s.c., T/C. The experiment in a line: NCI In Vivo Anticancer Drug Screen. Data for tumor model Colon Carcinoma 38 (subcutaneous) in B6C3F1 mice. To be noted: T/C endpoint: median tumor weight (est.), schedule: Q07DX002 (ip), higher T/C = larger tumour; for T/C: evaluated on day 20. The method, then:
The antitumor activity of compounds was measured in mice bearing transplantable tumors. Survival or tumor size were measured and the results are expressed as the measurement made in the treated group (T) divided by the measurement made in the vehicle treated control group (C). The tumor model used in this assay is Colon Carcinoma 38 (subcutaneous) in B6C3F1 mice

Where [1] appears, read: dose: 400.0 mg/kg/injection, vehicle: saline.
Where [2] appears, read: dose: 25.0 mg/kg/injection, vehicle: saline.
Setting [3] is: dose: 200.0 mg/kg/injection, vehicle: saline.
[4] abbreviates: dose: 800.0 mg/kg/injection, vehicle: saline.

Molecules are shown by their SMILES. The list is a part of this screen's results and no random one: it is rich in T/C values a quarter to a half above the control, in often repeated tests (any T/C) and in doses without a T/C. Other doses and runs of a compound stand elsewhere. T/C gives the treated animals as a percentage of the vehicle group. Schedules are NCI's codes, read here as Q, the interval in days (D) or hours (H), X, the number of doses. Some T/C values are followed by the survivors on the day toxicity was checked, most often the fifth; where none is given, no animal had died by that day. Some entries give survivors of the animals treated and no T/C: the source holds a T/C of zero for them, seemingly a mark for toxic or unscored doses. Counts of survivors are from the toxicity check (mostly the fifth day) where no day follows; animals may have died later. Some entries were tested several times; the results are listed from low to high.

Take `CN(CCN(C)C(=O)CCOS(C)(=O)=O)C(=O)CCOS(C)(=O)=O`: the survivor count under setting [1] is given as 4 of 10 on day 20.
Regarding `[Cl][Hg][Cl]`, the survivor count is 5 of 10 on day 20 (dose: 6.25 mg/kg/injection, vehicle: saline); 0 of 10 on day 20 (dose: 12.5 mg/kg/injection, vehicle: saline); 0 of 10 on day 20 under setting [2].
For `CC(C)NCC(O)COc1ccc(O)c(O)c1` (centres undefined), the survivor count reads like this: under setting [3], 6 of 10 on day 20; under setting [1], 0 of 10 on day 20; under setting [4], 0 of 10 on day 20.
As to `Cc1ccc2nc(-c3ccc4nc(-c5ccc(N=Nc6ccc(-c7nc8ccc(-c9nc%10ccc(C)c(S(=O)(=O)O)c%10s9)cc8s7)cc6)cc5)sc4c3)sc2c1S(=O)(=O)O`, the T/C under setting [2] is 134 % of control. The survivor count under setting [4] is recorded as 0 of 10 on day 20.
`O=C1C2CC(Cl)C(SSC3CC4C(=O)N(SC(Cl)(Cl)C(Cl)Cl)C(=O)C4CC3Cl)CC2C(=O)N1SC(Cl)(Cl)C(Cl)Cl` (centres undefined): the survivor count by setting is: (dose: 200.0 mg/kg/injection, vehicle: Klucel (hydroxypropylcellulose) (HPC)) 0 of 10 on day 20; (dose: 400.0 mg/kg/injection, vehicle: Klucel (hydroxypropylcellulose) (HPC)) 0 of 10 on day 20.
`Oc1ccc(CCl)c2cccnc12`: the survivor count under setting [1] is 0 of 10 on day 20.
With `CSCS(=O)C[C@H](CO)NC(=O)/C=C/c1c(C)[nH]c(=O)[nH]c1=O` (some centres undefined), the survivor count runs as follows: (dose: 8.0 mg/kg/injection, vehicle: saline) 3 of 10 on day 20; (dose: 16.0 mg/kg/injection, vehicle: saline) 0 of 10 on day 20; (dose: 32.0 mg/kg/injection, vehicle: saline) 0 of 10 on day 20.
Consider `Cc1cc(NCCCCCCCCNc2cc(C)nc3cc(N(C)C)ccc23)c2ccc(N(C)C)cc2n1`, for which the survivor count reads like this: (dose: 50.0 mg/kg/injection, vehicle: distilled water + Tween-80 + alcohol) 6 of 10 on day 20; (dose: 100.0 mg/kg/injection, vehicle: distilled water + Tween-80 + alcohol) 0 of 10 on day 20.
As for `CC1(C)OCC2OC=CC(=O)C2O1` (centres undefined), the T/C is 147 % of control (dose: 50.0 mg/kg/injection, vehicle: saline with Tween-80); 126 % of control (dose: 100.0 mg/kg/injection, vehicle: saline with Tween-80); 140 % of control (dose: 400.0 mg/kg/injection, vehicle: saline with Tween-80); 147 % of control [9 of 10 alive on day 20] (dose: 800.0 mg/kg/injection, vehicle: saline with Tween-80).
In the case of `O=c1c(O)c(-c2cc(O)c(O)c(O)c2)oc2cc(O)cc(O)c12`, the survivor count (dose: 1200.0 mg/kg/injection, vehicle: saline with Tween-80) is on record as 0 of 10 on day 20 and the survivor count (dose: 1800.0 mg/kg/injection, vehicle: saline with Tween-80) is on record as 1 of 10 on day 20.
Take `NC(=O)C1=CC2C3C=CC2(O)C(=O)OC3O1` (centres undefined): the survivor count by setting is: (dose: 60.0 mg/kg/injection, vehicle: Klucel (hydroxypropylcellulose) (HPC)) 2 of 10 on day 20; (dose: 120.0 mg/kg/injection, vehicle: Klucel (hydroxypropylcellulose) (HPC)) 0 of 10 on day 20.
With `CCC(C(=O)O)C(=O)O.[NH2-].[NH2-].[Pt+2]`, the survivor count was 0 of 10 on day 20 and 4 of 10 on day 20 under setting [3]; 2 of 10 on day 20 (dose: 200.0 mg/kg/injection, vehicle: suspension in saline); 0 of 10 on day 20 and 1 of 10 on day 20 under setting [1]; 0 of 10 on day 20 (dose: 400.0 mg/kg/injection, vehicle: suspension in saline).

The values are drawn from PubChem BioAssay AID214 (DTP/NCI, 2004).
